The full ranking holds about 33,000 sequences; the median of “E-score (-0.5 to 0.5)” is about -0.016, and the highest 2% start at about 0.3. This is one part of the list.
The sequences below were run against T1, Yer184c (UniProt P39961) (assay: PBM E-score (8-mer binding enrichment) (E-score (-0.5 to 0.5)); higher = stronger / more preferred TF binding). Conditions: protein concentration: 100 nM; construct: GST-full length.
T1 sequence: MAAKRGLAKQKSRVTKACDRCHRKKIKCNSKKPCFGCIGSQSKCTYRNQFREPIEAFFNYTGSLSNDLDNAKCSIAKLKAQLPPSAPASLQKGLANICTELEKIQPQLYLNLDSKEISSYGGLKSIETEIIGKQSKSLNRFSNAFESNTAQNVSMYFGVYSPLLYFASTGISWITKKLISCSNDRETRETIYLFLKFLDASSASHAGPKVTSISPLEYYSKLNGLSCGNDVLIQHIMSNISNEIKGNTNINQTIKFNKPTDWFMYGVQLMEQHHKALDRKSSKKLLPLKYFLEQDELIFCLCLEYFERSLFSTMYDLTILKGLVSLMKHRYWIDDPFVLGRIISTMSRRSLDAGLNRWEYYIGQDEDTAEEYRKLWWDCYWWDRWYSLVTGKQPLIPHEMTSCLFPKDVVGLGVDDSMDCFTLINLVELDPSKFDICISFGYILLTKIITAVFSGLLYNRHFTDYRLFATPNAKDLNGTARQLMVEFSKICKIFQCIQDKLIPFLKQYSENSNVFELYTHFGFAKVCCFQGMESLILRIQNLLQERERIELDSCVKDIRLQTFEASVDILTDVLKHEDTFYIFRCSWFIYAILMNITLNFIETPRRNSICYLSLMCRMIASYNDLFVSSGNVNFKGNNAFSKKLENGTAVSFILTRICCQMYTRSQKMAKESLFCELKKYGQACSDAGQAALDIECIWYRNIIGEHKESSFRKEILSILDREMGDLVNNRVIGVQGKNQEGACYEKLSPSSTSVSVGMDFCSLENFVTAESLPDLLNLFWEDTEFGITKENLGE
Method: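 Universal 'all 10-mer' protein binding microarrays (Agilent AMADID 015681) probed with GST-tagged S. cerevisiae TFs (full-length or DBD) made by in vitro transcription/translation (PURExpress), about 100-200 nM. Bound TF was detected with fluorescent anti-GST. Each ungapped 8-mer (which stands for itself and its reverse complement) is scored by the PBM enrichment score (E-score), a modified Wilcoxon-Mann-Whitney statistic from -0.5 to +0.5, computed with the Universal PBM Analysis Suite. Scale: above 0.35 generally sequence-specific binding.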

Row | Sequence | PBM E-score
1 | ACCATTAT | -0.045
2 | TGACATAA | 0.137
3 | AACAATCT | 0.0138
4 | ACCGCAGG | 0.132
5 | AACTTCTT | -0.0832
6 | CATGTGAC | -0.125
7 | AACATAGA | -0.0943
8 | ACGCGAAT | -0.0916
9 | GGACTAGA | 0.0413
10 | CGCCCTCA | -0.217
11 | CGCAAGCA | -0.0264
12 | ACATGTAT | 0.0291
13 | AGATGACC | -0.0421
14 | CTTAACCA | -0.0614
15 | ATGAAGGC | -0.0969
16 | TAAACGAA | 0.0902
17 | AGGGCCGA | 0.197
18 | CGGTAGCA | -0.0782
19 | ACGCGGCA | 0.096
20 | CAGGATGC | -0.0823
21 | AAGCATGC | -0.085
22 | AGCTGTGC | -0.231
23 | GAAAAGAA | 0.133
24 | ACTGAACA | 0.237
25 | GAGGATAA | 0.0354

A few values from the list.
Value of AGGGCCGA under PBM E-score: 0.197
Value of AACAATCT under PBM E-score: 0.0138

(further entries)

Row | Sequence | PBM E-score
26 | AGGTAGCG | -0.0168
27 | TACACATA | -0.0624
28 | AGGGCTGA | -0.113
29 | AGCAAGAG | -0.115
30 | ACGCCGGC | 0.423
31 | GCATATGC | -0.157
32 | AAGTAAAT | 0.131
33 | CTGCTTTC | 0.0885
34 | ATGGACAC | 0.18
35 | AGCATACT | -0.105
36 | ATTTGATA | 0.11
37 | AGATCTAG | -0.193
38 | CTCGTACC | -0.031
39 | CCATACTA | 0.079
40 | GCCTCGAC | -0.16
41 | ACGTAAGG | -0.229
42 | ATAGATAT | 0.161
43 | ACAACCTG | 0.0217
44 | ATACACCA | 0.101
45 | AGTGGGAG | -0.164
46 | AGTGTCGC | 0.00903
47 | ATTTTCCC | 0.00872
48 | GGCACACC | -0.232
49 | CGACTAAG | -0.0168
50 | GTATTTAA | 0.0858

Row | Sequence | PBM E-score
51 | TCTACGAA | -0.0342
52 | TCTGCAGA | 0.163
53 | CCCTAGAA | -0.162
54 | CAGAACGG | 0.192
55 | ACACGTAT | -0.0527
56 | CGTCCCGA | 0.0521
57 | CTACCGAC | 0.0302
58 | AAAACGGT | -0.133
59 | GCCCAGCC | -0.114
60 | ATTTTGAC | 0.0934
61 | AACCACCC | -0.173
62 | ACTGATCC | -0.0992
63 | GACTATAA | 0.0619
64 | CTGAAACC | 0.186
65 | AAACAAAT | 0.171
66 | GCAAAACC | -0.214
67 | AATCACAG | -0.025
68 | CAATTACG | 0.00382
69 | AGAATGTA | 0.0283
70 | CCCGAACA | 0.0635
71 | GGTTGCAA | -0.0127
72 | CGAAATTC | 0.168
73 | AAGTACCT | -0.0917
74 | ACGATCAC | -0.0656
75 | ATGCTGGC | -0.199

Row | Sequence | PBM E-score
76 | ATTGGTTA | 0.198
77 | AATAGCCC | -0.225
78 | AACTGCTT | -0.0392
79 | CGGAAATA | 0.424
80 | ACGCCGCG | 0.0694
81 | TACGCGGA | 0.163
82 | CCATGTTC | -0.0898
83 | AGATCCGG | 0.263
84 | AAAAGAAT | 0.202
85 | GACGCGAA | -0.0525
86 | ACGCACGT | -0.181
87 | ACGATAGA | -0.134
88 | ACATAACG | 0.0705
89 | CCCCGTGC | 0.0879
90 | CCTTTATA | -0.145
91 | TACGACAA | 0.129
92 | CGCGTACC | -0.0427
93 | ACCACTCC | 0.0166
94 | ACAGGTAT | -0.0108
95 | AGAAGATG | 0.139
96 | ATCGCGGA | -0.00991
97 | AGCCTTTA | 0.031
98 | GTGCGAAC | -0.151
99 | CTACAGTC | -0.13
100 | AAGGGGAG | -0.258

Row | Sequence | PBM E-score
101 | CGGGTAGA | 0.0241
102 | CATCACCA | -0.206
103 | ATTTGCGA | 0.13
104 | CCTCCACG | -0.15
105 | CTGCAGTA | -0.142
106 | ACCTTTTC | -0.076
107 | TCTAAAAA | 0.21
108 | GTTTGACA | 0.0632
109 | TGAAAGAA | 0.25
110 | CCCGCCGC | 0.134
111 | GATATTTA | 0.171
112 | CGTCAACC | -0.137
113 | TAGTTGCA | -0.0237
114 | CAGGGAGG | -0.358
115 | CCACGACA | -0.117
116 | ACGCTGGA | -0.0411
117 | CTGTTATC | -0.0267
118 | ACCTCATG | -0.17
119 | GCCGCAGC | 0.00866
120 | GGAGAATA | 0.178
121 | CAGAAGCG | 0.0323
122 | CGTGCGGC | 0.0714
123 | GCGGGTGA | 0.0452
124 | GTTTTAAA | 0.131
125 | GTGTCCAA | 0.115

Row | Sequence | PBM E-score
126 | GTAATTAC | 0.13
127 | ACCGTAGC | -0.126
128 | CCGGCGCG | 0.305
129 | TATGTAAA | 0.202
130 | ATCATCAG | 0.0187
131 | AGTATCAA | 0.205
132 | CGGTTGGA | -0.0321
133 | AACAAGCA | 0.0773
134 | CCGCTTCG | -0.106
135 | ATTGCAGG | 0.0249
136 | TTTACAAA | 0.0727
137 | ATTGAAAT | 0.24
138 | AGATGGTG | -0.16
139 | CCACTACG | 0.165
140 | GGTGGGCA | -0.188
141 | AAACGTCA | -0.173
142 | ATTCGGTC | 0.244
143 | GAGACAGA | -0.0698
144 | CAACGCGA | 0.0604
145 | ACGGACGC | -0.0536
146 | GAACGAGA | -0.103
147 | GTTGGCCA | -0.253
148 | ACCGCGCA | -0.128
149 | ACGACAAC | 0.171
150 | AGCGCTTA | 0.0118

Row | Sequence | PBM E-score
151 | ATGTGAAC | -0.0834
152 | TAAATTAA | 0.191
153 | ATTGCACC | -0.189
154 | CCTTGATA | 0.0337
155 | ATATTAAT | 0.283
156 | ATCTAGCA | -0.152
157 | GGCGCTTA | -0.151
158 | ATATCTGC | -0.0205
159 | ACGTCCCT | -0.168
160 | ACGATAAA | 0.0839
161 | AAAGTAGG | -0.00788
162 | AGAGGCTG | -0.385
163 | GTTGACTA | -0.0838
164 | GCCTTGGA | -0.074
165 | AACTCTCT | -0.0235
166 | ACATGTAA | 0.173
167 | ACTGCCCG | -0.0748
168 | CTCAAACA | 0.173
169 | TAGGCCCA | -0.249
170 | AACGCTTC | -0.0575
171 | AACCACCA | -0.226
172 | ACCGCGGG | 0.291
173 | CTAAAGAA | 0.112
174 | AGCCGCAT | 0.0929
175 | CTCTAGAC | -0.163

Four records picked at random from those above, as already listed:
Row | Sequence | PBM E-score
151 | ATGTGAAC | -0.0834
160 | ACGATAAA | 0.0839
163 | GTTGACTA | -0.0838
161 | AAAGTAGG | -0.00788

Next part.

Row | Sequence | PBM E-score
176 | ACATACTA | 0.184
177 | ATGAAAAG | -0.151
178 | CACCATTA | 0.0324
179 | ACTGCTTA | -0.0882
180 | CATCTCGG | 0.272
181 | ATATGACG | 0.128
182 | AAATCGTC | -0.0506
183 | ACCACAGA | -0.0365
184 | AGAGCCAG | -0.327
185 | AGCCCCGC | -0.183
186 | GATGCCCC | -0.361
187 | AAGTGGCA | -0.127
188 | GATTAGCA | 0.014
189 | CTGCCTCA | -0.295
190 | TCGCAACA | -0.0709
191 | ATTGACCA | -0.178
192 | CGCTAATA | 0.108
193 | GTTAAACA | 0.205
194 | GCAATGGA | -0.0333
195 | ACTACCGG | 0.00787
196 | AAACAAGT | 0.0344
197 | CTGGGGCC | -0.262
198 | ACCACATC | -0.0834
199 | AACTTTGG | -0.0277
200 | ATGTTGAG | -0.0804

Laid out differently: entries from further up
CGCTAATA
  PBM E-score: 0.108
GTTAAACA
  PBM E-score: 0.205
GCAATGGA
  PBM E-score: -0.0333
ACTACCGG
  PBM E-score: 0.00787

(further entries)

Row | Sequence | PBM E-score
201 | GCAATTCC | 0.076
202 | CCAAATCG | -0.0539
203 | CCTCAGAC | -0.1
204 | ACAATACC | 0.0469
205 | GGGGTACA | -0.111
206 | AACAGGTG | -0.205
207 | GCACCCCC | -0.185
208 | ACCGTGAT | 0.0247
209 | ACCTGACG | -0.246
210 | ACCGGGTG | 0.153
211 | GGGGAACC | -0.224
212 | TGGTCACA | 0.0668
213 | CTGACCAA | 0.12
214 | AGCAACCT | -0.172
215 | AGCAGTAC | -0.142
216 | ACCACGTC | -0.33
217 | CTCTCGTA | -0.204
218 | ACTAGCGA | -0.0311
219 | AAACGGCA | 0.153

Reference: the supplement of paper PMC3334620
